Results deposited as PubChem BioAssay AID504744 (Drosophila RNAi Screening Center, 2011)

Aim: 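Identify dsRNAs that increase or decrease phospho-dAkt after insulin treatment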 (primary screen)
Cell system: Drosophila Kc167 cells
Knock-down reagent: long dsRNA against Drosophila genes, 250 ng dsRNA per well of a 384-well plate
Time to read-out: 3 days of knock-down, then overnight serum-free starvation before stimulation
Challenge: bovine insulin at 387 nM for 10 minutes after 12 h without serum
Measurement: 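Per-well phospho-dAkt level from an in-cell fluorescent antibody stain, divided by a DNA-dye signal; log2 residuals turned into z-scores that take cell number into account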
Active means: 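Hit in the insulin screen when the two-replicate mean z-score is more extreme than plus or minus 2.5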
In all, the deposit lists about 23,000 reagents; below is an unselected part of those with a known target gene and a result. Of all reagents, 98 (0.43%) got an active call. 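Only hit calls are given; the phospho-dAkt signals, z-scores and hit direction were not deposited.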 Names joined by + are all predicted targets of the reagent. Reagent sequences are not shown.

gene | amplicon | Outcome
Gycbeta100B | DRSC14039 | inactive
Gycbeta100B | DRSC14040 | inactive
Gycbeta100B | DRSC16691 | inactive
CG4367 | DRSC15568 | inactive
ppk31 | DRSC13811 | inactive
CG8155 | DRSC07084 | inactive
CG8155 | DRSC21543 | inactive
CG13243 | DRSC01920 | inactive
Unr | DRSC10761 | inactive
Mis12 | DRSC10299 | inactive
salt | DRSC15427 | inactive
Pdk1 | DRSC08682 | active
Polr2I | DRSC16832 | inactive
Cul4 | DRSC07243 | inactive
CG32371 | DRSC22209 | inactive
CG12723 | DRSC19499 | inactive
ex | DRSC00817 | inactive
Clp | DRSC00746 | inactive
Damm | DRSC07393 | inactive
CG17107 | DRSC02575 | inactive
CG17107 | DRSC22627 | inactive
Pde9 | DRSC19746 | inactive
Pde9 | DRSC19874 | inactive
Pde9 | DRSC19875 | inactive
Pde9 | DRSC19876 | inactive
Lim3 | DRSC02475 | inactive
Lim3 | DRSC03363 | inactive
Lim3 | DRSC22183 | inactive
Lim3 | DRSC22650 | inactive
CG11504 | DRSC14318 | inactive
lsn | DRSC16081 | inactive
Fitm | DRSC09772 | inactive
SCAP | DRSC04869 | inactive
SCAP | DRSC04907 | inactive
CG13186 | DRSC06311 | inactive
Mlp84B | DRSC12596 | inactive
CG2278 | DRSC18226 | inactive
Gr22c | DRSC22081 | inactive
Sema2a | DRSC07551 | inactive
Dup99B | DRSC22877 | inactive
CG14668 | DRSC12254 | inactive
5PtaseI | DRSC16269 | inactive
5PtaseI | DRSC22090 | inactive
Tpc1 | DRSC15614 | inactive
Tpc1 | DRSC16074 | inactive
Dsp1 | DRSC20315 | inactive
CG15456 | DRSC20527 | inactive
Cftr | DRSC15872 | inactive
ND-ASHI | DRSC18291 | inactive
CG7179 | DRSC03020 | inactive
CG18418 | DRSC08535 | inactive
CG10853 | DRSC08164 | inactive
AdamTS-A | DRSC14992 | inactive
AdamTS-A | DRSC15966 | inactive
CG3349 | DRSC10359 | inactive
Fer1 | DRSC12507 | inactive
Fer1 | DRSC12555 | inactive
CG12204 | DRSC19442 | inactive
B-H1 | DRSC19334 | inactive
B-H1 | DRSC21922 | inactive
Or22b | DRSC00765 | inactive

10 neighbouring entries already listed, for reference:
gene | amplicon | Outcome
Lim3 | DRSC02475 | inactive
Lim3 | DRSC03363 | inactive
Lim3 | DRSC22183 | inactive
Lim3 | DRSC22650 | inactive
CG11504 | DRSC14318 | inactive
lsn | DRSC16081 | inactive
Fitm | DRSC09772 | inactive
SCAP | DRSC04869 | inactive
SCAP | DRSC04907 | inactive
CG13186 | DRSC06311 | inactive

The list goes on:
gene | amplicon | Outcome
Drsl5 | DRSC08159 | inactive
Tim10 + CG42497 | DRSC04664 | inactive
CG32452 | DRSC11581 | inactive
CG32452 | DRSC22250 | inactive
TotM | DRSC02355 | inactive
Glyp | DRSC00752 | inactive
GCC185 | DRSC15493 | inactive
frac | DRSC10867 | inactive
barc | DRSC11792 | inactive
LysX | DRSC08678 | inactive
CG32686 | DRSC17645 | inactive
Dab | DRSC11140 | inactive
CG14628 | DRSC18626 | inactive
CG7791 | DRSC04891 | inactive
Spt-I | DRSC06860 | inactive
CG33469 | DRSC22900 | inactive
msl-3 | DRSC11371 | inactive
Osi8 | DRSC12277 | inactive
TyrRS | DRSC10430 | inactive
beat-Va | DRSC14192 | inactive
CG15221 | DRSC19659 | inactive
vito | DRSC21781 | inactive
Bka | DRSC02757 | inactive
CG18609 | DRSC06775 | inactive
CG34280 | DRSC13229 | inactive
CG33639 | DRSC19966 | inactive
CG33639 | DRSC22820 | inactive
CG8861 | DRSC12731 | inactive
CG8861 | DRSC16449 | inactive
CG7810 | DRSC03072 | inactive
CG3281 | DRSC15470 | inactive
Xxylt | DRSC04107 | inactive
Rgk1 (retired record) | DRSC07343 | inactive
Rgk1 (retired record) | DRSC07344 | inactive
CG10565 | DRSC11620 | inactive
how | DRSC16966 | inactive
CG7768 | DRSC10914 | inactive
Pex1 | DRSC11358 | inactive
CG44837 | DRSC10133 | inactive
CG44837 | DRSC10558 | inactive
TkR86C | DRSC16880 | inactive
CG31301 | DRSC22164 | inactive
CG13215 | DRSC06337 | inactive
CG13784 | DRSC00974 | inactive
CG13784 | DRSC02287 | inactive
Grx1 | DRSC10727 | inactive
